# Results as given in PubChem BioAssay AID1671190 (National Center for Advancing Translational Sciences (NCATS), 2021).
# By UniProt entry, the sequences of proteins in these tests, tags left out. Where a name states a change or a piece, a line headed by the entry shows the natural chain unless it says otherwise.
# UniProt P18054: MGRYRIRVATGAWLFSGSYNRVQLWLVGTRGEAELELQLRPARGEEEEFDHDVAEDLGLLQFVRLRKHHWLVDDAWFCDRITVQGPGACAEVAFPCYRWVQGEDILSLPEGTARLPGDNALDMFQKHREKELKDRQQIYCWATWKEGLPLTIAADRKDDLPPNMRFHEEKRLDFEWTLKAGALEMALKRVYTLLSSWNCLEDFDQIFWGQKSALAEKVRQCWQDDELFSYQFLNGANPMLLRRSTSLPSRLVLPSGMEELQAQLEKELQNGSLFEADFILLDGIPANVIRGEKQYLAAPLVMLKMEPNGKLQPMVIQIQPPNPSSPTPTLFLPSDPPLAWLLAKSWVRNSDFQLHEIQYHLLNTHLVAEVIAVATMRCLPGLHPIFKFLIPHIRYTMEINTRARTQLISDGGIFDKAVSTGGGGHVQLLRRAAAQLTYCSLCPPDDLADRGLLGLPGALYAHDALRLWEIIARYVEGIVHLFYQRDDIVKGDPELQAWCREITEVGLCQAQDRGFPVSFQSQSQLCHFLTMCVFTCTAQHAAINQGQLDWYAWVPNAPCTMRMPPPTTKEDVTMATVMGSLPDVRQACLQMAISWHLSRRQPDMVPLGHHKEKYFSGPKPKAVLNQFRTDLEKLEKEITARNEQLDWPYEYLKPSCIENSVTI
# The campaign covered roughly 580,000 compounds. About 6,100 (1.1%) were called active. The inconclusive results got no clear call from the source; some entries with a clear call stand among them for comparison. The call rests on the fitted dose curve; in most records, active means well fitted inhibition curve with a large enough effect; inconclusive means small, poorly fitted or top-dose-only effect, or another doubt; inactive means no such curve, though single readings can be large or run the other way. A potency beside an inconclusive call is a rough fit, not a confirmed value.
# Molecular target: Polyunsaturated fatty acid lipoxygenase ALOX12 (Homo sapiens) (UniProt P18054)
# Assay: Primary qHTS assay for inhibitors of human arachidonate 12S-lipoxygenase (ALOX12): Round 2
# Conditions: purified 12hLO, xylenol orange hydroperoxide absorbance; activity change, negative = inhibition: at 108 µM (top of the series) unless noted
# How it was run: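 Purified human 12hLO (150 nM final) in 25 mM Hepes, 0.01% Triton X-100, pH 7.0 was preincubated 15 min at room temperature with compound. Then 40 uM arachidonic acid was added, 30 min. Hydroperoxide was read by Fe-XO absorbance ratio 573/405 nm.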
# On the % scale 0 is the no-effect control and ±100 the full control effect; potency means the concentration at half of the fitted maximal effect.
SMILES,"activity change, negative = inhibition",Potency
O=C1C2=C(S[C@@H]3O[C@H](CO)[C@@H](O)[C@H](O)[C@H]3O2)C(=O)c2ccccc21,inactive: 3.9%,
COc1ccc(S(=O)(=O)N2CCN(C(=O)c3cc(-c4ccc(Br)cc4)n[nH]3)CC2)cc1OC,,inactive
OC1(CN2CCC(Oc3cccnc3)CC2)CNCCOC1 (centres undefined),,"inconclusive: 4.47 µM [inhibitor, full curve]"
CNS(=O)(=O)c1ccc(NCCc2ccc(S(N)(=O)=O)s2)c([N+](=O)[O-])c1,,active: 17.8 µM
O=C(Nc1cccc(S(=O)(=O)N2CCCCCC2)c1)c1cc(=O)c2ccccc2o1,,inactive
COc1ccc(Cn2c(=O)oc3ccccc32)cc1OC,inactive: 12.5%,
CSc1ccccc1C(=O)Nc1ccc(S(=O)(=O)NC2=NCCCCC2)cc1,,"inconclusive: 89.1 µM [inhibitor, single point]"
Cc1ccccc1NC(=O)CN1C(=O)C2C3CC(C(Br)C3Br)C2C1=O (centres undefined),,"inconclusive: 44.7 µM [inhibitor, partial curve, poor fit]"
COc1ccc(NC(=O)c2cc(-c3ccncc3)nc3ccccc23)c(OC)c1,inactive: -5.77%,
CCc1ccc(-c2nc(SC(C(=O)N3CCCC3)c3ccccc3)n[nH]2)cc1 (centres undefined),inactive: -28.1%,
COc1ccc(CCC(=O)N2CCC(c3n[nH]c(=O)n3Cc3ccc(F)cc3)CC2)cc1,,"inconclusive: 22.4 µM [inhibitor, partial curve, poor fit]"
O=C(C(=O)N1CCN(c2ccncc2)CC1)c1cccc(Br)c1,,"inconclusive: 112 µM [inhibitor, single point]"
CCOc1ccc2[nH]c(=O)c(C(c3nnnn3CCOC)N3CCOCC3)cc2c1 (centres undefined),,"inconclusive: 35.5 µM [inhibitor, single point]"
COc1ccc(CN2C[C@@H](CO)O[C@@H](n3cnc4c(N(C)C)ncnc43)C2)cc1,,"inconclusive: 126 µM [inhibitor, single point]"
Cc1ccsc1CNn1cnnc1SCc1ccc(Cl)cc1,,"inconclusive: 50.1 µM [inhibitor, partial curve, poor fit]"
CN1CCC(N(C)CC(=O)Nc2cccc(Oc3ccccc3)c2)CC1,,"inconclusive: 0.112 µM [inhibitor, full curve, poor fit]"
CCCNC(=O)N(C1CCOCC1)C1CCN(S(=O)(=O)c2cc(F)ccc2C)CC1,inactive: 29.7%,
O=C(CCc1ccccc1)NC1(Cc2ccccc2)CCN(CCc2cccs2)C1=O (centres undefined),,"inconclusive: 0.224 µM [inhibitor, full curve, poor fit]"
O=C(/C=C/c1ccc(Br)cc1)NC(=S)NNC(=O)c1ccco1,,"inconclusive: 4.47 µM [inhibitor, single point]"

# In another format: four of the compounds above
SMILES | activity change, negative = inhibition | Potency
COc1ccc(Cn2c(=O)oc3ccccc32)cc1OC | inactive: 12.5% | 
CSc1ccccc1C(=O)Nc1ccc(S(=O)(=O)NC2=NCCCCC2)cc1 |  | inconclusive: 89.1 µM [inhibitor, single point]
Cc1ccccc1NC(=O)CN1C(=O)C2C3CC(C(Br)C3Br)C2C1=O (centres undefined) |  | inconclusive: 44.7 µM [inhibitor, partial curve, poor fit]
COc1ccc(NC(=O)c2cc(-c3ccncc3)nc3ccccc23)c(OC)c1 | inactive: -5.77% | 
